Test results from PubChem BioAssay AID1508600 (Functional Genomics Laboratory (NCATS/FGL), 2020).
Among all 53,000 sequences or so, about 3,700 (7%) were called active.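 How the source made its calls: active means gene knockdowns whose robust z-score for IL-1 alpha signal is at least 2 or at most -2, so actives lie on both sides; inactive means the rest.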 This is one part of the list.

Experiment: Components of the Cytosolic LPS Sensing Pathway: Gene Identification via Genome-wide siRNA Screen
Conditions: RAW264.7 macrophages, IL-1a HTRF, actives lie on both sides, screened at 100 nM (by protocol), cells primed 5 h with Pam3CSK4 first
From the text: Non-canonical inflammasome activation by cytosolic LPS is a critical component of the host response to Gram-negative bacterial infection, however we lack a comprehensive understanding of the cellular processes that control this pathway. Here we describe a genome-wide siRNA screen to identify genes regulating the mouse macrophage IL-1 alpha response to cytosolic LPS.
RAW264.7 cells were maintained in complete DMEM media, comprising DMEM with 4.5 g/L glucose, 10% FBS (Gemini Bio-Products, West Sacramento, CA), 2 mM Glutamine (Lonza) and 20 mM HEPES (Lonza), hereafter complete DMEM.
The RNAi screen was conducted in 384-well format using the Ambion Silencer Mouse Genome siRNA Library (#4391425), which consists of three unique, nonoverlapping, nonpooled siRNAs for each of 17,000 gene targets. siRNA reagents ([…]) were stamped into 384-well white flat-bottom microplates (Corning, 3570) using a Velocity11 VPrep liquid handling system (Agilent) integrated into a BioCel robotic platform (Agilent) in columns 1-22, leaving columns 23-24 empty for negative (Ambion, Negative control #1) and positive (mouse Casp4) controls, respectively. The median value of each plate's negative control column was used to normalize sample wells, and the positive control was used to assess transfection efficiency and assay performance.
Lipofectamine RNAiMAX Transfection Reagent ([…]; Invitrogen) was added in […] serum-free, antibiotic-free media to plate wells using a Thermo Scientific Matrix WellMate and Microplate Stacker. Plates were incubated for 45 min at room temperature to allow for the sufficient formation of siRNA-lipid complexes. Cells were seeded at a density of 1x10^4 cells per well in 20 microL media containing 20% (vol/vol) FBS without antibiotics. The final concentration of siRNA in each well was 100 nM. Cells were cultured for 48h at 37 degrees C in 5% CO2 before addition of […] of TLR ligand Pam3CSK4 for 5 hours. The medium was then removed, replaced with […] growth media and cell were transfected with […] of LipidA and TransIT-TKO (Mirus) for 24 hour. At the end of the LipidA treatment, […] of supernatant was transferred to a 384 Greiner Bio-one non-binding low volume plate and […] of IL-1a HTRF reagent (Cisbio, 62MIL1APEH) was added and incubated at room temperature overnight. The plates were read on an EnVision plate reader (PerkinElmer). Cell viability was measured by adding 20ul Cell Titer Glo to the original plate and running a luminescence read on the EnVision. The quantified IL-1a signal for each siRNA gene-targeted well was divided by the median of the negative control wells and multiplied by 100 to achieve a negative control normalized value for each well/siRNA. This normalized value was then used to generate a robust z-score by first taking the log of each value and then by subtracting the median and dividing by the […].

Sequence	z-score
GGUCGUCGUGAGAUCUUAUTT against Prlhr	inactive: -0.342
GGACAUGUUCAAUGUGAAUTT against Dhrs11	inactive: 0.252
GGGUUUGAGGACUUGAUGATT against Strada	inactive: -0.145
CCUAUCAGACUGUAAUAAGTT against Kdm2b	inactive: -0.404
GCUGACGAAAUCAAGAACCTT against Sox9	inactive: 0.712
GGAAGGAUAUGAGAAUUUCTT against Nt5c3	active: 2.51
GGGAACAAAGAAUUUUACATT against Msl1	inactive: 0.15
GGACAUAUUGGAUGGUGAUTT against Usp2	inactive: -0.847
GCUUCUUGAAAGUACAUUGTT against Nae1	inactive: 0.386
GCCUGUUCCAGAAUUGCUATT against Bcl7c	inactive: -1.44
GCUAAGUAAGGUGGUAUAUTT against Dgka	inactive: -1.03
GGAACAAAGAUGUCAAGUCTT against Olfr521	inactive: 1.59
GCCAUCAUGCUUUCAUGACTT against Tspo	inactive: 0.143
GGAAGAAAGGAGAAAACCATT against Rars	inactive: -1.53
GCCUUCCAACGAAGUUAAUTT against Epha3	inactive: 0.214
GGAGUGCGGACGAUAAUACTT against Ppp1r3f	inactive: -1.97
GGAGGUGGUCCAGAAUUUUTT against Cotl1	inactive: 0.633
GGCACCAGCUCAUUAUCAATT against Npy4r	inactive: -0.54
GGCACAAAGGCAGUUAUUCTT against Lage3	inactive: -0.181
GGAAUAUUCAGAAUCCCUCTT against Tnfaip8l3	inactive: -0.762
CGUUGAUCCUUUCUAACAUTT against Olfr888	inactive: -1.73
GGCAGUGGGAAGUCUUUCATT against Kif17	inactive: 0.287
GGUGGAAGCCGAAGUAUCUTT against Krt15	inactive: 0.655

Sequence	z-score
GCUCAAGGACUUACGCAACTT against Zfp668	inactive: -1.61
GGUCUUCGUGGACAUUCCATT against Arrdc2	inactive: 1.05
GCAGCCAAUGGGUUCGCUUTT against Hoxa3	inactive: 1.13
GCGGAACUGAUUUAGUUCATT against Kazald1	inactive: 0.992
CGGAGUUCAGCAUUUACCCTT against Shld2	inactive: 0.428
GCAACACGUCUUCUUUGCATT against Hadh	inactive: -0.824
GCUACUAUAGCAACCUAACTT against Eef2k	inactive: -0.97
GGUUGCCCAAAACUCUAGATT against Elovl7	inactive: 0.793
GGCAUGUUCUCUAAGGAAGTT against Gm4814	inactive: -0.533
GGAUGUGCCCAAGGACAAGTT against Foxc2	inactive: 0.779
GGAUGUCAAAUCUUCCAUATT against Olfr971	inactive: -0.447
GGUCGAGGACAAAAAAAAATT against Dner	active: -2.27
GGCUCACUCAUCAAUUCCCTT against 2210010C04Rik	inactive: -0.432
GGAAAAGAGGAGUGAAAUCTT against Tmsb10	inactive: -1.08
GCAAAGGAGGCUUCUAUUGTT against Olfr380	inactive: -0.803
GGAUAGUCUUUCCAGAUGGTT against Slamf7	inactive: -1.26
GGUCACCAUCAUCAUCAAUTT against Carmil1	inactive: 0.484
GGUGAAAAGUCUCUGAAUGTT against Pbk	inactive: 0.253
CCAGGAAUGACACGGGAUGTT against Mdh2	inactive: 1.99
GGUCAACAAUCACUUUUUCTT against Pip4k2c	inactive: -0.794
CGACUGAUAGAUGAGUAAATT against C130026L21Rik	inactive: 0.424
GGACAGGAAGAAAAGAAACTT against Vmn2r-ps11	inactive: -1.19
GCAGCUUCAAGAGAGCCAUTT against Rhbdl1	inactive: -0.604

Sequence	z-score
GCCUAUGGACCAGUUAGAUTT against Nono	inactive: -0.786
CGGUCUGCUCUACAUUGUCTT against Nek4	inactive: 1.39
CCUCAGUACGUGCAGUAUGTT against Mos	inactive: -0.447
GGGAAGGCUGAAUGACUGCTT against Vamp5	inactive: 0.257
GGUGCUGGAGAAAACCUUGTT against Gdpd1	inactive: -1.09
GCAAUCCAUUGAAAGAGGCTT against Hps3	inactive: -1.17
GCGACUAGUAGUGCAUGAATT against Wdr13	inactive: -0.434
GAGCUCUUGGUGGAUCAUCTT against Foxo3	inactive: -0.62
GGCGGUUUUUUGUCUAUGCTT against Serpina1e	inactive: -0.503
GGAAAUCUUCAAACUUAGATT against Tlk2	inactive: 0.743
GGAUUUUGAGAAGAACAAUTT against Eloa	inactive: 1.29
GGGUCAGUGACUAAGCUUCTT against Abca7	inactive: -0.107
CGGGACUAUUAUUACUCCATT against Ap2m1	inactive: -1.22
CGAAUACAACCAGUUUCUGTT against Adam11	inactive: 0.235
GCUGACUCCAUCCUAACAGTT against Cideb	active: -2.6
GGAGGAUAUGAGCAAGUACTT against Isg20	inactive: -0.476
GGAAUCCUCUAAAUGACCUTT against Vmn1r174	inactive: -1.49
CCUUGAAUCGGCCCUGAAATT against Cfap57	inactive: -0.252
GGCAGCGAAAGUUUUCAAGTT against Pcdhga12	inactive: 0.721
GGACUGAAUCUUUAAAGGUTT against Nkx1-2	inactive: 0.199
GGUACUGAUUGCUUUCUCUTT against Olfr1491	inactive: -1.55
GGAGGACAACAAGUACUGCTT against Smap1	inactive: -1.08

Part of the list above, in markdown.

| Sequence | z-score |
| --- | --- |
| GGAAUAUUCAGAAUCCCUCTT against Tnfaip8l3 | inactive: -0.762 |
| CGUUGAUCCUUUCUAACAUTT against Olfr888 | inactive: -1.73 |
| GGAUGUGCCCAAGGACAAGTT against Foxc2 | inactive: 0.779 |
| GGCGGUUUUUUGUCUAUGCTT against Serpina1e | inactive: -0.503 |
| GGGUCAGUGACUAAGCUUCTT against Abca7 | inactive: -0.107 |
